Tested on: FabH
Experiment: Recovery of FabH activity after inhibition (dialysis, dithiothreitol)
Format: biochemical
Details: after inhibition by the compound

Compound	activity of FabH after dialysis	activity of FabH after treatment with dithiothreitol (DTT)
COC1C(=O)N(SC)C1c1ccccc1Cl (stereo not shown) [Compound 2a]	not regenerated	fully restored
CCC(C)SN1C(=O)C(OC)C1c1ccccc1Cl (stereo not shown) [Compound 2g]	not regenerated	fully restored
